## Assay results

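A cell-based FRET test of anthrax lethal toxin entry, tracked through the 460 nm emission signal; the cell line is not named here.
Each compound was tested as a concentration series from about 0.0005 to 40 µM.
The number is the fitted AC50 of the 460 nm signal alone; lower values mean a more potent effect. A falling signal goes with compounds filed as inhibitors or cytotoxic, a rising one with activators or fluorescent compounds (inferred from the filed classes).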

Values are in µM.
Common to all entries: measured here: 460 nm channel.
This is a side read-out of the assay, for part of the compounds, not drawn at random.
A potency from a partial, single-point or poor curve is only a rough figure.
The first word of each remark tells which way the curve ran; it can be opposite to the aim of the assay.

Result for O=C(CSc1nnc(-c2cccc(S(=O)(=O)N3CCCCC3)c2)o1)c1ccc[nH]1 was AC50 0.1995 µM (rising, full curve, poor fit). Result for CSc1cccc(NC(=O)CSc2ccccc2)c1 was AC50 10 µM (falling, partial curve). For COc1ccc(Oc2ncc3nc(-c4ccc(OC)cc4)c(=O)n(CCC#N)c3n2)cc1 the result was AC50 25.12 µM (rising, single point). Result for COC(=O)[C@@]1(Cc2ccc(F)cc2)[C@H]2c3cc(C(=O)N4CCCC4)n(Cc4cc(F)cc5c4OCOC5)c3C[C@H]2CN1C(=O)c1ccccc1 was AC50 31.62 µM (falling, single point).

O=C(CSc1nnc(-c2cccnc2)n1Cc1ccco1)c1ccc(Cl)c(Cl)c1 read AC50 5.012 µM (falling, partial curve). COc1cccc(OC)c1OCCCc1c(C)n[nH]c1C gave AC50 25.12 µM (rising, single point). Result for CCC[C@@H]1C[C@@]1(CCC)C(NC(=O)c1ccccc1)c1cccc(Cl)c1 (some centres undefined) was AC50 0.1 µM (falling, partial curve, poor fit). Cc1oc(C)c(C(=O)Nc2ccc(CC(=O)O)cc2)c1C(=O)Nc1ccc(CC(=O)O)cc1 gave AC50 5.012 µM (rising, partial curve).

Cc1cc(C)c2c3c(sc2n1)C1(CCSCC1)C(C#N)=C(N)O3 read AC50 0.03981 µM (rising, full curve). CCN1c2nc3c(C)cccn3c(=O)c2CC2(C(=O)N(C)C(=O)N(C)C2=O)C1C (centres undefined) gave AC50 3.981 µM (rising, single point). For COc1ccc2[nH]cc(CCNc3ccnc(-c4ccc(N(C)C)cc4)n3)c2c1 the result was AC50 10 µM (falling, partial curve). N[C@@H](CO)C(=O)NNCc1ccc(O)c(O)c1O gave AC50 31.62 µM (falling, single point).

For CC1(C)CC(=O)C2=C(C1)Nc1ncnn1C2c1ccccn1 (centres undefined) the result was AC50 0.005012 µM (falling, full curve). For COCCOC(=O)c1[nH]c2c(c1C)C(=O)CC(c1ccco1)C2 (centres undefined) the result was AC50 3.162 µM (falling, full curve, poor fit). With COc1cccc(Nc2ncc3nc(-c4cc(F)cc(F)c4)c(=O)n(C[C@H]4CCCO4)c3n2)c1 the assay gave AC50 1.585 µM (rising, full curve). CC1(C(=O)O)CCC(C(=O)Nc2ccc(S(N)(=O)=O)cc2)C1(C)C (centres undefined) read AC50 1.259 µM (rising, full curve, poor fit).

COc1ccc(S(=O)(=O)Cc2ccc(C(=O)N3CCN(c4ccc(Cl)cc4)CC3)o2)cc1 read AC50 10 µM (falling, partial curve). COc1ccc(/C=N/n2cc(-c3ccc(OC)cc3)nc2N)cc1 gave AC50 12.59 µM (falling, single point). Result for COC(=O)c1ccc(C(=O)OC)c(NC(=O)CCC(=O)O)c1 was AC50 0.1 µM (falling, full curve, poor fit). CC(=O)Oc1ccc(/C=C\C(=O)C[C@@H]2O[C@@H](Oc3cc(OC(C)=O)c4c(c3)O[C@@H](c3ccc(OC(C)=O)cc3)CC4=O)[C@H](OC(C)=O)[C@H](OC(C)=O)[C@@H]2OC(C)=O)cc1 gave AC50 0.2512 µM (rising, full curve).

Result for c1cncc(-c2nc(NCc3cccs3)c3ccccc3n2)c1 was AC50 15.85 µM (falling, partial curve). CCOc1ccc(N2Cc3ccccc3C2)cc1 gave AC50 10 µM (falling, single point). For Cc1ccc(N2C(=O)c3ccccc3C2=O)cc1Cl the result was AC50 6.31 µM (falling, partial curve). Cn1c(=O)c2c(nc(CN3CCc4ccccc4C3)n2CC(=O)c2ccccc2)n(C)c1=O gave AC50 12.59 µM (rising, partial curve).

Result for Cc1ccccc1C(=O)Nc1ccc(Br)cn1 was AC50 0.003981 µM (falling, full curve, poor fit). O=c1c2cc(N3CCOCC3)ccc2[nH]c(=S)n1CCCN1CCN(c2ccccc2F)CC1 gave AC50 12.59 µM (falling, partial curve). COc1cccc(Nc2ncc3nc(-c4ccccc4)c(=O)n(C[C@H]4CCCO4)c3n2)c1 gave AC50 0.5012 µM (rising, full curve, poor fit). For C/C(=N/O)c1ccc2cc(Br)c3ccccc3c2c1 the result was AC50 1 µM (falling, partial curve).

Repeated from the top, 2 entries:

structure,AC50 (µM),curve
O=C(CSc1nnc(-c2cccc(S(=O)(=O)N3CCCCC3)c2)o1)c1ccc[nH]1,0.1995,"rising, full curve, poor fit"
CSc1cccc(NC(=O)CSc2ccccc2)c1,10,"falling, partial curve"

Data taken from PubChem BioAssay AID912, deposited by NCATS (2007).